These are yes or no findings as the source states them, for the method shown. Some entries that bind do so weakly or less than the wild type.
Key:
Test in all cases: yeast two-hybrid
[1] = target: p85 SH2 domains and inter SH2 domain (AA 263-727) (human) (UniProt P04386+P27986)
[2] = target: p85 N-terminal SH2 and inter SH2 domain (AA 263-620) (human) (UniProt P04386+P27986)
[3] = target: p85 full length (AA 6-727) (human) (UniProt P04386+P27986)

The chains behind the UniProt entries cited, without tags or fusion partners. Where a name states a change or a piece, a line headed by the entry shows the natural chain unless it says otherwise.
UniProt P04386: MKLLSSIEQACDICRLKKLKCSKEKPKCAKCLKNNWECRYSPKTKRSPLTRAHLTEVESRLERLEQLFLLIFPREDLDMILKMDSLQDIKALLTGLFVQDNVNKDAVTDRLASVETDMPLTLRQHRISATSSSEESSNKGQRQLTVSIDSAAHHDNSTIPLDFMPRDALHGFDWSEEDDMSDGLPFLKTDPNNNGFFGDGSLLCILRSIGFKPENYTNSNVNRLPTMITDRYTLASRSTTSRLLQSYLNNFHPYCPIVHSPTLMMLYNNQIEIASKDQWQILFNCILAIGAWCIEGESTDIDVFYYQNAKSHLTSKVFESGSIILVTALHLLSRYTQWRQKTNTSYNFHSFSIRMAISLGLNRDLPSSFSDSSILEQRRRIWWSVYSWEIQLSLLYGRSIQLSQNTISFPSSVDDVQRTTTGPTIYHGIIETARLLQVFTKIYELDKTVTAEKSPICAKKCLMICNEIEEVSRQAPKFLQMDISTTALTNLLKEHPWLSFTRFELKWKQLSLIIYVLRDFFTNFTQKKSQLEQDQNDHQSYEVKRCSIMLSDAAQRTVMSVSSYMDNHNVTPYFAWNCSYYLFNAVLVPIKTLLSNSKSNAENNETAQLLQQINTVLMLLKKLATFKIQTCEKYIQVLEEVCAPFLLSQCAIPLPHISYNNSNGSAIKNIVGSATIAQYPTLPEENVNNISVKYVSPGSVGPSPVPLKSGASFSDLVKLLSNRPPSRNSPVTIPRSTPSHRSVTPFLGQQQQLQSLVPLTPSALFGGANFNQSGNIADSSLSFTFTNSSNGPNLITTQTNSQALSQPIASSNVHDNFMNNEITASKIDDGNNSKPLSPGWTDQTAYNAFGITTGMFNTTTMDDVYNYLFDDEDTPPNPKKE
UniProt P27986: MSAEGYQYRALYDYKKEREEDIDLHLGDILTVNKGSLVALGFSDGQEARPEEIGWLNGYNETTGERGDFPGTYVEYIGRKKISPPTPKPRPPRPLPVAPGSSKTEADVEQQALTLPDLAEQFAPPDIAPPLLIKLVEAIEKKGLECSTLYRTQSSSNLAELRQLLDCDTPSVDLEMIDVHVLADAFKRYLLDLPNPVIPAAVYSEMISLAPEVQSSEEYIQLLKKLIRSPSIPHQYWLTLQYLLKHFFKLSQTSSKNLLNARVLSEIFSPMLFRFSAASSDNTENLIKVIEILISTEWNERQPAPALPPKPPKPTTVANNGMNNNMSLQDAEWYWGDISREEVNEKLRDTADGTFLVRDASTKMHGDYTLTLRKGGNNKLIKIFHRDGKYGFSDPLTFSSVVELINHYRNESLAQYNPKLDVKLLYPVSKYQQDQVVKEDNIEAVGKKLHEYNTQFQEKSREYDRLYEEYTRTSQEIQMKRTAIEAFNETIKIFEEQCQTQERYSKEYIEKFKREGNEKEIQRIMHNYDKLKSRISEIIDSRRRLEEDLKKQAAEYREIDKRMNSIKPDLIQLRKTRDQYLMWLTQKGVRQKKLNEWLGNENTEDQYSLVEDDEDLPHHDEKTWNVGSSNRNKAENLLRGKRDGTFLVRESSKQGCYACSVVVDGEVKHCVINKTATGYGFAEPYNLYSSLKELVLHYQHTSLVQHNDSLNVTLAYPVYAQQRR

binding [1]: binds
binding [2]: binds
binding [3]: binds
B1: PIKAP AA 517-589 (protein, not shown: large carriers)
chain: DRLIALKAVTNFGVPVEVFDSEEAEIFQKKLDETTRLLRELQEAQNERLSTRPPGNMICLLGPSSEKCILLNK
